Measured values published in article PMC3395635.
These are yes or no findings as the source states them, for the method shown. Binding seen in cells or lysates may run through a third protein. Here binding means that the protein was enriched with, or labelled near, the bait; the list need not be complete.

Target: HIV-1 integrase with a C-terminal biotin acceptor sequence, biotinylated (virus NLXINB) (HIV-1)
Assay: affinity purification with mass spectrometry

B1: TRAP1 (protein, UniProt Q12931 60-704)
chain: STQTAEDKEEPLHSIISSTESVQGSTSKHEFQAETKKLLDIVARSLYSEKEVFIRELISNASDALEKLRHKLVSDGQALPEMEIHLQTNAEKGTITIQDTGIGMTQEELVSNLGTIARSGSKAFLDALQNQAEASSKIIGQFGVGFYSAFMVADRVEVYSRSAAPGSLGYQWLSDGSGVFEIAEASGVRTGTKIIIHLKSDCKEFSSEARVRDVVTKYSNFVSFPLYLNGRRMNTLQAIWMMDPKDVREWQHEEFYRYVAQAHDKPRYTLHYKTDAPLNIRSIFYVPDMKPSMFDVSRELGSSVALYSRKVLIQTKATDILPKWLRFIRGVVDSEDIPLNLSRELLQESALIRKLRDVLQQRLIKFFIDQSKKDAEKYAKFFEDYGLFMREGIVTATEQEVKEDIAKLLRYESSALPSGQLTSLSEYASRMRAGTRNIYYLCAPNRHLAEHSPYYEAMKKKDTEVLFCFEQFDELTLLHLREFDKKKLISVETDIVVDHYKEEKFEDRSPAAECLSEKETEELMAWMRNVLGSRVTNVKVTLRLDTHPAMVTVLEMGAARHFLRMQQLAKTQEERAQLLQPTLEINPRHALIKKLNQLRASEPGLAQLLVDQIYENAMIAAGLVDDPRAMVGRLNELLVKALERH
binding: binds
